Source: patent publication US8440594B2, “Pyridothiazines having herbicidal action” (BASF SE, priority 2010, dated 2013)
Some of these results come from one statement about several compounds together. For some of these results: For at least one compound, name, drawing or mass did not settle the structure.

What was measured:
Test in all cases: Greenhouse herbicidal activity, post-emergence treatment
Assay type in all cases: in vivo
[1] = test system: Chenopodium album (CHEAL); settings: scale 0 to 100
Description: (§1) The seeds of the test plants were sown separately for each species. For the post-emergence treatment, the test plants were first grown to a height of 3 to 15 cm, depending on the plant habit, and only then treated with the active ingredients which had been suspended or emulsified in water. For this purpose, the test plants were either sown directly and grown in the same containers, or they were first grown separately as seedlings and transplanted into the test containers a few days prior to treatment. Depending on the species, the plants were kept at 10-25° C. or 20-35° C. The test period extended over 2 to 4 weeks. During this time, the plants were tended, and their response to the individual treatments was evaluated. Evaluation was carried out using a scale from 0 to 100. 100 means no emergence of the plants, or complete destruction of at least the aerial moieties, and 0 means no damage, or normal course of growth. A good herbicidal activity is given at values of at least 70 and a very good herbicidal activity is given at values of at least 85. The plants used in the greenhouse experiments belonged to the following species: [table]

[2] = test system: Setaria viridis (SETVI); settings: application rate 0.5 kg/ha, scale 0 to 100
[3] = test system: Amaranthus retroflexus (AMARE); settings: scale 0 to 100
Description: as §1

Row | SMILES | herbicidal activity against CHEAL ([1]; application rate 0.5 kg/ha) | herbicidal activity against AMARE ([3]; application rate 0.5 kg/ha) | further results
1 | O=S1(=O)C(c2cc(F)ccc2C(F)(F)F)=C(O)c2ncccc2N1CC(F)F [Compound I-3] | very good herbicidal activity (a very good herbicidal activity is given at values of at least 85) |  | herbicidal activity against SETVI [2]: very good herbicidal activity (a very good herbicidal activity is given at values of at least 85)
2 | O=S1(=O)C(c2ccccc2Cl)=C(O)c2ncccc2N1CC(F)F [Compound I-5] | very good herbicidal activity (a very good herbicidal activity is given at values of at least 85) |  | herbicidal activity against SETVI [2]: good herbicidal activity (A good herbicidal activity is given at values of at least 70)
3 | CCOc1c(S(=O)(=O)CC)ccc(C2=C(O)c3ncccc3N(CC(F)F)S2(=O)=O)c1Cl [Compound I-23] |  |  | herbicidal activity against CHEAL ([1]; application rate 0.25 kg/ha): very good herbicidal activity (a very good herbicidal activity is given at values of at least 85)
4 | CCOc1c(S(=O)(=O)CC)ccc(C2=C(O)c3ncccc3N(CC(C)C)S2(=O)=O)c1Cl [Compound I-29] |  |  | herbicidal activity against CHEAL ([1]; application rate 0.154 kg/ha): very good herbicidal activity (a very good herbicidal activity is given at values of at least 85)
5 | Cc1c(S(C)(=O)=O)ccc(C2=C(O)c3ncccc3N(CC(F)F)S2(=O)=O)c1Cl [Compound I-36] | very good herbicidal activity (a very good herbicidal activity is given at values of at least 85) | very good herbicidal activity (a very good herbicidal activity is given at values of at least 85) | 
6 | Cc1c(C2=C(O)c3ncccc3N(CC(F)F)S2(=O)=O)ccc(S(C)(=O)=O)c1C#N [Compound I-37] | very good herbicidal activity (a very good herbicidal activity is given at values of at least 85) | very good herbicidal activity (a very good herbicidal activity is given at values of at least 85) | 
7 | COc1c(S(C)(=O)=O)ccc(C2=C(O)c3ncccc3N(CC(F)F)S2(=O)=O)c1Cl [Compound I-38] |  |  | herbicidal activity against AMARE ([3]; application rate 0.25 kg/ha): very good herbicidal activity (a very good herbicidal activity is given at values of at least 85); herbicidal activity against CHEAL ([1]; application rate 0.25 kg/ha): very good herbicidal activity (a very good herbicidal activity is given at values of at least 85)
8 | CN1c2cccnc2C(O)=C(c2ccc(Cl)cc2Cl)S1(=O)=O [Compound I-39] |  | very good herbicidal activity (a very good herbicidal activity is given at values of at least 85) | 
9 | CCN1c2cccnc2C(O)=C(c2ccc(Cl)cc2Cl)S1(=O)=O [Compound I-40] |  | very good herbicidal activity (a very good herbicidal activity is given at values of at least 85) | 
10 | CCCN1c2cccnc2C(O)=C(c2ccc(Cl)cc2Cl)S1(=O)=O [Compound I-41] |  | very good herbicidal activity (a very good herbicidal activity is given at values of at least 85) | 
11 | CCCCN1c2cccnc2C(O)=C(c2ccc(Cl)cc2Cl)S1(=O)=O [Compound I-42] |  | very good herbicidal activity (a very good herbicidal activity is given at values of at least 85) | 
12 | CC(C)CN1c2cccnc2C(O)=C(c2ccc(Cl)cc2Cl)S1(=O)=O [Compound I-43] | very good herbicidal activity (a very good herbicidal activity is given at values of at least 85) | good herbicidal activity (A good herbicidal activity is given at values of at least 70) | 
13 | CC(C)N1c2cccnc2C(O)=C(c2ccccc2Cl)S1(=O)=O [Compound I-51] |  |  | herbicidal activity against SETVI [2]: very good herbicidal activity (a very good herbicidal activity is given at values of at least 85)
14 | CC(C)CN1c2cccnc2C(O)=C(c2ccc3c(c2Cl)CCS3(=O)=O)S1(=O)=O [Compound I-53] |  |  | herbicidal activity against CHEAL ([1]; application rate 0.1 kg/ha): very good herbicidal activity (a very good herbicidal activity is given at values of at least 85)
15 | O=S1(=O)C(c2cc(Cl)cc(N3CCOCC3)c2C(F)(F)F)=C(O)c2ncccc2N1CC(F)F [Compound I-56, 3-[5-chloro-3-morpholino-2-(trifluoromethyl)phenyl]-1-(2,2-difluoroethyl)-2,2-dioxo-pyrido[3,2-c]thiazin-4-ol] |  |  | herbicidal activity against CHEAL ([1]; application rate 0.25 kg/ha): very good herbicidal activity (a very good herbicidal activity is given at values of at least 85)
16 | CCN1c2cccnc2C(O)=C(c2ccc3ccccc3c2Cl)S1(=O)=O [Compound I-61] | very good herbicidal activity (a very good herbicidal activity is given at values of at least 85) |  | 

Row | SMILES | herbicidal activity against CHEAL ([1]; application rate 0.5 kg/ha) | herbicidal activity against AMARE ([3]; application rate 0.5 kg/ha) | further results
17 | CCN1c2cccnc2C(O)=C(c2ccc(F)cc2F)S1(=O)=O [Compound I-63] |  |  | herbicidal activity against AMARE ([3]; application rate 0.25 kg/ha): very good herbicidal activity (a very good herbicidal activity is given at values of at least 85)
18 | Cc1c(C2=C(O)c3ncccc3N(CC(F)F)S2(=O)=O)ccc(OC(F)F)c1C1=NOCC1 [Compound I-64] | very good herbicidal activity (a very good herbicidal activity is given at values of at least 85) | very good herbicidal activity (a very good herbicidal activity is given at values of at least 85) | 
19 | Cc1c(C2=C(O)c3ncccc3N(CC(F)F)S2(=O)=O)ccc2c1C(=O)C(C)(C)CS2(=O)=O [Compound I-71] |  |  | herbicidal activity against AMARE ([3]; application rate 0.25 kg/ha): very good herbicidal activity (a very good herbicidal activity is given at values of at least 85)
20 | CCOC(CN1c2cccnc2C(O)=C(c2ccccc2Cl)S1(=O)=O)OCC [Compound I-73] | very good herbicidal activity (a very good herbicidal activity is given at values of at least 85) |  | 
21 | O=S1(=O)C(c2cc(F)c(Cl)cc2Cl)=C(O)c2ncccc2N1CC(F)F [Compound I-87] | very good herbicidal activity (a very good herbicidal activity is given at values of at least 85) |  | herbicidal activity against SETVI [2]: very good herbicidal activity (a very good herbicidal activity is given at values of at least 85)
22 | CC1=NOC(c2c(Cl)ccc(C3=C(O)c4ncccc4N(CC(F)F)S3(=O)=O)c2C)C1 (stereo not shown) [Compound I-91] | very good herbicidal activity (a very good herbicidal activity is given at values of at least 85) |  | herbicidal activity against SETVI [2]: very good herbicidal activity (a very good herbicidal activity is given at values of at least 85)
23 | O=S1(=O)C(c2c(Cl)cccc2Cl)=C(O)c2ncccc2N1CC(F)F [Compound I-93] | very good herbicidal activity (a very good herbicidal activity is given at values of at least 85) |  | herbicidal activity against SETVI [2]: very good herbicidal activity (a very good herbicidal activity is given at values of at least 85)
24 | O=S1(=O)C(c2ccc(F)cc2Cl)=C(O)c2ncccc2N1CC(F)F [Compound I-94] | very good herbicidal activity (a very good herbicidal activity is given at values of at least 85) |  | herbicidal activity against SETVI [2]: very good herbicidal activity (a very good herbicidal activity is given at values of at least 85)
25 | CC(C)c1cccc(C2=C(O)c3ncccc3N(CC(F)F)S2(=O)=O)c1Cl [Compound I-98] | very good herbicidal activity (a very good herbicidal activity is given at values of at least 85) |  | 
26 | O=S1(=O)C(c2ccccc2I)=C(O)c2ncccc2N1CC(F)F [Compound I-101] | very good herbicidal activity (a very good herbicidal activity is given at values of at least 85) | very good herbicidal activity (a very good herbicidal activity is given at values of at least 85) | 
27 | O=S1(=O)C(c2ccc(Cl)cc2Br)=C(O)c2ncccc2N1CC(F)F [Compound I-104] | very good herbicidal activity (a very good herbicidal activity is given at values of at least 85) | good herbicidal activity (A good herbicidal activity is given at values of at least 70) | 
28 | Cc1c(F)ccc(C2=C(O)c3ncccc3N(CC(F)F)S2(=O)=O)c1Cl [Compound I-108] | very good herbicidal activity (a very good herbicidal activity is given at values of at least 85) | good herbicidal activity (A good herbicidal activity is given at values of at least 70) | 
29 | COc1c(C2=C(O)c3ncccc3N(CC(F)F)S2(=O)=O)ccc(S(C)(=O)=O)c1C1CC(C)=NO1 (stereo not shown) [Compound I-109] | very good herbicidal activity (a very good herbicidal activity is given at values of at least 85) | very good herbicidal activity (a very good herbicidal activity is given at values of at least 85) | 
30 | O=S1(=O)C(c2c(F)cccc2C(F)(F)F)=C(O)c2ncccc2N1CC(F)F [Compound I-118] | very good herbicidal activity (a very good herbicidal activity is given at values of at least 85) | very good herbicidal activity (a very good herbicidal activity is given at values of at least 85) | 
31 | O=S1(=O)C(c2ccc(Br)cc2Cl)=C(O)c2ncccc2N1CC(F)F [Compound I-119] | very good herbicidal activity (a very good herbicidal activity is given at values of at least 85) | very good herbicidal activity (a very good herbicidal activity is given at values of at least 85) | 
32 | CC1=NOC(c2c(Cl)ccc(C3=C(O)c4ncccc4N(CC(F)F)S3(=O)=O)c2Cl)C1 (stereo not shown) [Compound I-120] | very good herbicidal activity (a very good herbicidal activity is given at values of at least 85) |  | 
